Read-outs that look alike come from different tables or passages of the source. Results are given in words; binding and its absence hold for the method and conditions named. In cells and extracts the contact can be indirect. Some entries that bind do so weakly or less than the wild type. Sequences can lack the tags named with a protein. Values belong to the molecule of their own block, whether it stands above or below them.
Experiments:
Test in all cases: co-IP
[1] = target: T1, murine Gpr126-myc tagged protein (mouse) (UniProt Q6F3F9)
T1 sequence: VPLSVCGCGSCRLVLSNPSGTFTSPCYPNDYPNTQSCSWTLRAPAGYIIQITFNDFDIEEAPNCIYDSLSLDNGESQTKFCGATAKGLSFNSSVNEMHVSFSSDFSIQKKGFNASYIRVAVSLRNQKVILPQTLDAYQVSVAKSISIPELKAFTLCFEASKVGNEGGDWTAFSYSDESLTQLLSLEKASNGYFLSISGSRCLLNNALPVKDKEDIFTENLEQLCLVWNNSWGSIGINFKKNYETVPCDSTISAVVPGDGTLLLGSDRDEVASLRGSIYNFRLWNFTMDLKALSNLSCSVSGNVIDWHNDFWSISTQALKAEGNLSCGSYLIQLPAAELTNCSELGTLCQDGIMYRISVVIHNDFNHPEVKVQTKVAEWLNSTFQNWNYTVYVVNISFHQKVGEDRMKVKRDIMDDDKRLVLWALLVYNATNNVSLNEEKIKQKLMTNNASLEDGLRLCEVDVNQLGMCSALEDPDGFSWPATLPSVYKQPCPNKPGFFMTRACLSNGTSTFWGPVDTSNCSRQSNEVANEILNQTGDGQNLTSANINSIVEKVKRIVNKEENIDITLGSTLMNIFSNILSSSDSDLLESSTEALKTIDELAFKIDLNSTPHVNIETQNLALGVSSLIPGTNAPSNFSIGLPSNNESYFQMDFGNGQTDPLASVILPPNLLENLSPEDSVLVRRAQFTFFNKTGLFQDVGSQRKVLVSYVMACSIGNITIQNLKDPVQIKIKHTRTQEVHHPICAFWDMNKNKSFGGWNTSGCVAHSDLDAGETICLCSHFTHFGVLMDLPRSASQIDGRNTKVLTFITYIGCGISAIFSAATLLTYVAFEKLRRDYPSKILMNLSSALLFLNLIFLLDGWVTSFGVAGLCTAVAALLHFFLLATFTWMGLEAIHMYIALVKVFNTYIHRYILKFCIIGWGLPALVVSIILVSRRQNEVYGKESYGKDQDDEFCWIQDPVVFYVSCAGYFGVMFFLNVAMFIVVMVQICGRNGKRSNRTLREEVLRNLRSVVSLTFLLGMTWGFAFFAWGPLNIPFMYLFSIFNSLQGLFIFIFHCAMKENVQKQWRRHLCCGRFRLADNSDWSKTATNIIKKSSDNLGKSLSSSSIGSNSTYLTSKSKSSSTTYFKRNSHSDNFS

The chains behind the UniProt entries cited, without tags or fusion partners. Residues count along the entry.
UniProt P09055, residues 21-798: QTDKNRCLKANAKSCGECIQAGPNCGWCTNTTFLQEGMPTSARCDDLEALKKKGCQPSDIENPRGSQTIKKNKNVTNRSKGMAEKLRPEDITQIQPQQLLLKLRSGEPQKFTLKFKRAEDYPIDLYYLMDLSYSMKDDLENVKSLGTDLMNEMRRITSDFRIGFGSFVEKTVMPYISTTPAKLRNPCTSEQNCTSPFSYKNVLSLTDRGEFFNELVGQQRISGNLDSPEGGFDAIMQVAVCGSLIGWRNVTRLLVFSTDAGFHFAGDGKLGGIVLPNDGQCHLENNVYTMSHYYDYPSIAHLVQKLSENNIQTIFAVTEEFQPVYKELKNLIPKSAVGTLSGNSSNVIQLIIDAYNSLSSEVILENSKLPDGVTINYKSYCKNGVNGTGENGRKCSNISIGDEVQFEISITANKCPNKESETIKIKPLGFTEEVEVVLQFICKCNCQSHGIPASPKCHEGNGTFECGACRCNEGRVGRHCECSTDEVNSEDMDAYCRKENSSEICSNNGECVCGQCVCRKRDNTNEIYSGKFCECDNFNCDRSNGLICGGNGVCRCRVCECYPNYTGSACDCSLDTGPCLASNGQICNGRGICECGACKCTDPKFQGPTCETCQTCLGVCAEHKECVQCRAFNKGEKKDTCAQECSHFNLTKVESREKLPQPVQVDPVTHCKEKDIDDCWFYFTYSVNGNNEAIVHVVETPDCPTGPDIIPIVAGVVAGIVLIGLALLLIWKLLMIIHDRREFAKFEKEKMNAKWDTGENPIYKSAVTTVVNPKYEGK
UniProt Q91ZX7, residues 20-4545: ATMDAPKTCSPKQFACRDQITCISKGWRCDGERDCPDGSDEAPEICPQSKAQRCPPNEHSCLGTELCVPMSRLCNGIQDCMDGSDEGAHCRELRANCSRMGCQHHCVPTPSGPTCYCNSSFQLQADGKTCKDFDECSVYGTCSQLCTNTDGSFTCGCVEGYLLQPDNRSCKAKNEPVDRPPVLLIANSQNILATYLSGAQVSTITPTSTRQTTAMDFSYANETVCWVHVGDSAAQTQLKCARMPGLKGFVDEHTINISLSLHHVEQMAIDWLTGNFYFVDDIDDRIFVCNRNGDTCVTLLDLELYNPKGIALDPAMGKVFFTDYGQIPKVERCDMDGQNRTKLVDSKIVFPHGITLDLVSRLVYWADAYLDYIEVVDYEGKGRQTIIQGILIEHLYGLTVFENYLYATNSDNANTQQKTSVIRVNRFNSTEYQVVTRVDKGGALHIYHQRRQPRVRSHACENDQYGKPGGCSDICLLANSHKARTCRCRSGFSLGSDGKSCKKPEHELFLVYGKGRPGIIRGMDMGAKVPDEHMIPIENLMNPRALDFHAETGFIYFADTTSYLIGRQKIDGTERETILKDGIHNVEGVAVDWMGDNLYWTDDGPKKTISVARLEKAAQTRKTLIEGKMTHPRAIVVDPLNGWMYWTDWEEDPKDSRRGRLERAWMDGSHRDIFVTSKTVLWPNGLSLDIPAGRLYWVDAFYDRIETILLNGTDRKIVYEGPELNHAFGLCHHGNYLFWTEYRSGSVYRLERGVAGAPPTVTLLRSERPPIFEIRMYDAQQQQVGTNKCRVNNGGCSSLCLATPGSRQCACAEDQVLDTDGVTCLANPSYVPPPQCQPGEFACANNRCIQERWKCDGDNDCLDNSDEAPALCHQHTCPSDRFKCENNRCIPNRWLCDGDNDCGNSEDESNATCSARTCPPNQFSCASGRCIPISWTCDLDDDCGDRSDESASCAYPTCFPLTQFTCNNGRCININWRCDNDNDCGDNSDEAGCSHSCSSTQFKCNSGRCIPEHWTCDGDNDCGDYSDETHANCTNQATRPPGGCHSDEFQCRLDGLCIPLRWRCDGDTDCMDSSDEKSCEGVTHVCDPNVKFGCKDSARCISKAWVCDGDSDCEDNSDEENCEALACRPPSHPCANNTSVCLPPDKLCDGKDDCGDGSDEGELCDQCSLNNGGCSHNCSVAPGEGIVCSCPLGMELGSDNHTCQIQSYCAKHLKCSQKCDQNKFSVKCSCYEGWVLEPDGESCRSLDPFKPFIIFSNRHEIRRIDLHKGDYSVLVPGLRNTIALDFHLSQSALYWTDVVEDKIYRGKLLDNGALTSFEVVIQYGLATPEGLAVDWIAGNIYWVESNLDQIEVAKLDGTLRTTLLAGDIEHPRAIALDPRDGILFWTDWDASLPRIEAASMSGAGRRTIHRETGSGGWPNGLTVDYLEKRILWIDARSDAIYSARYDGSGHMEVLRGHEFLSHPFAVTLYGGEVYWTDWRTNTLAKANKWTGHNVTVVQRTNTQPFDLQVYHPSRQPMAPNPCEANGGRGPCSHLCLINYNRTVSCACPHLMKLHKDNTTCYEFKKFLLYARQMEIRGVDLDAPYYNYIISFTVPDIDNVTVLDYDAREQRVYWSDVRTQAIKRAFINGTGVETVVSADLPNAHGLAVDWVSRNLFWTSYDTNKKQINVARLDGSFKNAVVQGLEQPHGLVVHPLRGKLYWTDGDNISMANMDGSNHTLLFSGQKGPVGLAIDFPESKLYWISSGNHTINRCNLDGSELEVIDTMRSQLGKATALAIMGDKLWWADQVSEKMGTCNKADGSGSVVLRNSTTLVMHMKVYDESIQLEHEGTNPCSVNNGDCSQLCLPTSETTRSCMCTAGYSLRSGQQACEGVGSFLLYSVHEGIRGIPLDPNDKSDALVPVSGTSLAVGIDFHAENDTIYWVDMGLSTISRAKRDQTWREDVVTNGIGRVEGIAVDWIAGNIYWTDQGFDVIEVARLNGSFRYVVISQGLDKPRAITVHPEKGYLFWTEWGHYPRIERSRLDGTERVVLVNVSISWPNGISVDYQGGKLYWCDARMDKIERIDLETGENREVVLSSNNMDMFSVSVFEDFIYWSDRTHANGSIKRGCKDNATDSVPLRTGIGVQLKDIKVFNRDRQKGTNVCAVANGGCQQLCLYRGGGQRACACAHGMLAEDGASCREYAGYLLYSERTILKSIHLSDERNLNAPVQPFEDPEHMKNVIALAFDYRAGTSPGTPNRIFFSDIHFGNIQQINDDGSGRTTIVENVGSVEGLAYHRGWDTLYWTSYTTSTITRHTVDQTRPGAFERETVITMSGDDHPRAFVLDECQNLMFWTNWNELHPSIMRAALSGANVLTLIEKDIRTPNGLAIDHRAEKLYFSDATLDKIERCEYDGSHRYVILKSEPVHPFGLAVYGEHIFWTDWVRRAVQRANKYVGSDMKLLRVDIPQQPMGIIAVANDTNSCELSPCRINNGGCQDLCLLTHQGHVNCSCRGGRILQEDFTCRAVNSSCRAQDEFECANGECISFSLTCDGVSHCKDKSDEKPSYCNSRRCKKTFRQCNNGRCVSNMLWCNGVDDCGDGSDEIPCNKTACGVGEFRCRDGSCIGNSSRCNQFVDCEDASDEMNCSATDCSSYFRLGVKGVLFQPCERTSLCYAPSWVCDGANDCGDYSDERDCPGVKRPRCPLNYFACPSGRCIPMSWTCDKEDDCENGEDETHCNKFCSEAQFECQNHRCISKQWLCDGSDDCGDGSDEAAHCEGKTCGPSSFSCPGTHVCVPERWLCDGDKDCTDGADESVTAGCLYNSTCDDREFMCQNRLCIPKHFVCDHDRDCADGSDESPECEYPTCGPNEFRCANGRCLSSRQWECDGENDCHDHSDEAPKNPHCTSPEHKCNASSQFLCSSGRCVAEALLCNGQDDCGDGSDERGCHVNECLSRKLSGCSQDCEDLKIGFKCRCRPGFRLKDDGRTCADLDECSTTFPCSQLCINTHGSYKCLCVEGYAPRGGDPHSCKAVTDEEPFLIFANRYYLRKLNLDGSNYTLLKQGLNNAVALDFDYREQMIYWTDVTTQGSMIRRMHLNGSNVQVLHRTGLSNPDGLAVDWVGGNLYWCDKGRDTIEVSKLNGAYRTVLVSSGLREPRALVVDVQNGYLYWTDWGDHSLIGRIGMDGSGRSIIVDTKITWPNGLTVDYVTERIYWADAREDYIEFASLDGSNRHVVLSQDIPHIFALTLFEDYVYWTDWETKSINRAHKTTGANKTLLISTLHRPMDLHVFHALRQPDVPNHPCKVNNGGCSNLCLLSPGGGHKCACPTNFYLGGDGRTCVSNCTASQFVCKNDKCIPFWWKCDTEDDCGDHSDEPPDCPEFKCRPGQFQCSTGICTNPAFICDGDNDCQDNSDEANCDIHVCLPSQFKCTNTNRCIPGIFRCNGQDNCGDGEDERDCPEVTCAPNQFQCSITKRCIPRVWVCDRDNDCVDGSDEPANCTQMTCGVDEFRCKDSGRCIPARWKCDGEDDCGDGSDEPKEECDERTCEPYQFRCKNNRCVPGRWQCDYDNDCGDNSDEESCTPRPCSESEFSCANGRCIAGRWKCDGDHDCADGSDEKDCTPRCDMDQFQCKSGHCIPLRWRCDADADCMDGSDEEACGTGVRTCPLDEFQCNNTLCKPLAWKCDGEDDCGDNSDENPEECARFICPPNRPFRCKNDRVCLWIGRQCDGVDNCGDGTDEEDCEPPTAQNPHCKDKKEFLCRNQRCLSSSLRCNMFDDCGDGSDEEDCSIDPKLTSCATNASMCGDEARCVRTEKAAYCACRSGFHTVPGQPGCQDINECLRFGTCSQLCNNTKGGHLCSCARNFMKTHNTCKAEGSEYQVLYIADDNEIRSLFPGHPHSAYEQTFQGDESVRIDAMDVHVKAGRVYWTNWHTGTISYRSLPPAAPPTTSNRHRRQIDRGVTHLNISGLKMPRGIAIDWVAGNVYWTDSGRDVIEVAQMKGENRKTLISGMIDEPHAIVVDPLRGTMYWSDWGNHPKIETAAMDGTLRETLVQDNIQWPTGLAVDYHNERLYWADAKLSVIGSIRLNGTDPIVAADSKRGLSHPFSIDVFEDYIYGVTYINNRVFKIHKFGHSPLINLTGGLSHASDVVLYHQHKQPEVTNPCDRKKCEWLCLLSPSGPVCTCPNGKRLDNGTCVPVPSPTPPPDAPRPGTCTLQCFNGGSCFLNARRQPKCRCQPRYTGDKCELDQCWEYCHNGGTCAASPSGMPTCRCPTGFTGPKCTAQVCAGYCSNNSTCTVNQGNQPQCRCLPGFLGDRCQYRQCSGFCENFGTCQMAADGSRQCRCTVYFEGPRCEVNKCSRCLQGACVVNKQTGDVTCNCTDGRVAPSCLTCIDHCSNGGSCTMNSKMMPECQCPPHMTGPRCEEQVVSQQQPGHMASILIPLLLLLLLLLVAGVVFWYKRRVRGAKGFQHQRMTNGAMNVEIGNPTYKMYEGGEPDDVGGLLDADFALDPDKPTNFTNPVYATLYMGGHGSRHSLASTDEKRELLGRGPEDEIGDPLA

[2] = target: β1-integrin (mouse (endogenous in iBECs)) (UniProt P09055)
[3] = target: T1, murine Gpr126-myc tagged protein (mouse); remark: listed apart in the source

Molecule: β1-integrin (from UniProt P09055 21-798) (receptor)
binding [1]: binds

B2: α1-integrin (receptor, UniProt Q3V3R4 29-1179)
chain: FNVDVKNSMSFSGPVEDMFGYTVQQYENEEGKWVLIGSPLVGQPKARTGDVYKCPVGRERSMPCVKLDLPVNTSIPNVTEIKENMTFGSTLVTNPKGGFLACGPLYAYRCGHLHYTTGICSDVSPTFQVVNSFAPVQECSTQLDIVIVLDGSNSIYPWESVTAFLNDLLKRMDIGPKQTQVGIVQYGANVTHEFNLNKYSSTEEVLVAANKIGRRGGLQTMTALGIDTARKEAFTEARGARRGVKKVMVIVTDGESHDNYRLKQVIQDCEDENIQRFSIAILGHYNRGNLSTEKFVEEIKSIASEPTEKHFFNVSDELALVTIVKALGERIFALEATADQSAASFEMEMSQTGFSAHYSQDWVMLGAVGAYDWNGTVVMQKANQIVIPHNTTFQTEPTKMNEPLASYLGYTVNSATIPGDVLYIAGQPRYNHTGQVVIYKMEDGDVNILQTLSGEQIGSYFGSVLTTIDIDKDSYTDLLLVGAPMYMGTEKEEQGKVYVYAVNQTRFEYQMSLEPIKQTCCSSLKDNSCTKENKNEPCGARFGTAVAAVKDLNVDGFNDVVIGAPLEDDHAGAVYIYHGSGKTIRKEYAQRIPSGGDGKTLKFFGQSIHGEMDLNGDGLTDVTIGGLGGAALFWARDVAVVKVTMNFEPNKVNIQKKNCRVEGKETVCINATMCFHVKLKSKEDSVYEADLQYRVTLDSLRQISRSFFSGTQERRIQRNLTVRESECIRHSFYMLDKHDFQDSVRVTLDFNLTDPENGPVLDDALPNSVHGHIPFAKDCGNKERCVSDLTLDVSTTEKNLLIVRSQNDKFNVSLTVKNKGDSAYNTRTVVQYSPNLIFSGIEEIQKDSCESNQNITCRVGYPFLRTGDVVNFKIIFQFNTSHLSENAIIHLSATSDSEEPLESLYDNEVNISIPVKYEVGLQFYSSASEHHISVAANETVPELINSTKDIGDEINVFYTIRKRGHFPMPELRLAISFPNLTSDGYPVLYPTGWSSSDNVNCRPRSLEDPLGINSGKKMTISKSEVLKRGTIQDCSTCKIATITCHLLPSDVSQVNVSLILWKPTFIKAHFSSLNLTIRGELQSENSSLTLSSSNRKRELAIQISKDGLPGRVPLWVILLSAFAGLLLLMLLILALWKIGFFKRPLKKKMEK
binding [3]: no binding

B3: α3-integrin (receptor, UniProt Q62470 33-1053)
chain: FNLDTRFLVVKEAVNPGSLFGYSVALHRQTERQQRYLLLAGAPRDLAVGDDYTNRTGAVYLCPLTAHKDDCERMDISEKSDPDHHIIEDMWLGVTVASQGPAGRVLVCAHRYTKVLWSGLEDQRRMVGKCYVRGNDLQLDPGDDWQTYHNEMCNSNTDYLQTGMCQLGTSGGFTQNTVYFGAPGAYNWKGNSYMIQRKDWDLSEYSYRGSEEQGNLYIGYTVQVGNAILHPTDIITVVTGAPRHQHMGAVFLLKQESGGDLQRKQVLKGTQVGAYFGSAIALADLNNDGWQDLLVGAPYYFERKEEVGGAVYVFMNQAGASFPDQPSLLLHGPSRSAFGISIASIGDINQDGFQDIAVGAPFEGLGKVYIYHSSSGGLLRQPQQIIHGEKLGLPGLATFGYSLSGKMDVDENLYPDLLVGSLSDHIVLLRARPVINILHRTLVARPAVLDPALCTATSCVQVELCFAYNQSAGNPNYRRNITLAYTLEADRDRRPPRLRFARSQSSVFHGFFSMPETHCQTLELLLMDNVRDKLRPIVIAMNYSLPLRMPDRLKLGLRSLDAYPVLNQAQAMENHTEVHFQKECGPDNKCDSNLQMRAAFLSEQLQPLSRLQYSRDTKKLFLSINVTNSPSSQRAGEDAHEALLTLEVPSALLLSSVRPSGTCQANNETILCELGNPFKRNQRMELLIAFEVIGVTLHTRDLPVLLQLSTSSHQDNLQPVLLTLQVDYTLQASLSLMNHRLQSFFGGTVMGEAAMKTAEDVGSPLKYEFQVSPVGDGLAALGTLVLGLEWPYEVTNGKWLLYPTEITIHSNGSWPCQPSGNLVNPLNLTLSDPGVTPLSPQRRRRQLDPGGDQSSPPVTLAAAKKAKSETVLTCSNGRARCVWLECPLPDTSNITNVTVKARVWNSTFIEDYKDFDRVRVDGWATLFLRTSIPTINMENKTTWFSVDIDSELVEELPAEIELWLVLVAVGAGLLLLGLIILLLWKCGFFKRARTRALYEAKRQKAEMKSQPSETERLTDDY
binding [3]: binds

Other lines, results leading:

binding [1]: binds
Molecule: low-density lipoprotein receptor-related protein-1 (Lrp1) (from UniProt Q91ZX7 20-4545)

binding [2]: binds
B1: murine Gpr126-myc tagged protein (receptor, UniProt Q6F3F9 31-1165)
chain: T1 sequence

Reference: paper doi:10.1101/2022.09.09.507316
